{"source": "PubChem BioAssay AID504774 (Drosophila RNAi Screening Center, 2011)", "aim": "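Genes required for cells to withstand methyl methanesulphonate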 (primary screen)", "cells": "Drosophila Kc167 cells", "knock-down reagent": "long dsRNA against Drosophila genes, about 0.25 µg dsRNA per well", "duration": "about 6 days: 3 days knock-down, then 3 days with or without MMS", "challenge": "methyl methanesulphonate 0.004% (w/v) for 3 days after knock-down", "detection": "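Viability in wells given MMS, read as ATP luminescence, normalised by quantiles plate by plate and averaged across replicates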", "direction": "mean viability with MMS: higher = more surviving cells after MMS", "note": "The screen tested about 23,000 reagents; shown is a random part of those that have a named target and a result. 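Values are quantile-normalised luminescence on an arbitrary scale; higher means more cells surviving MMS.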 Not all columns of the deposit are shown. No sequences are given here."}
{"target": "CG6497", "DRSC id": "DRSC10654", "mean viability with MMS": 3.43e6}
{"target": "CG6497", "DRSC id": "DRSC21469", "mean viability with MMS": 3.53e6}
{"target": "Dlic", "DRSC id": "DRSC19824", "mean viability with MMS": 3.45e6}
{"target": "Ir62a", "DRSC id": "DRSC08250", "mean viability with MMS": 3.51e6}
{"target": "CG3857", "DRSC id": "DRSC18542", "mean viability with MMS": 3.68e6}
{"target": "CG15484", "DRSC id": "DRSC02494", "mean viability with MMS": 3.70e6}
{"target": "CG15484", "DRSC id": "DRSC22836", "mean viability with MMS": 3.34e6}
{"target": "Upf2", "DRSC id": "DRSC18218", "mean viability with MMS": 3.53e6}
{"target": "SNCF", "DRSC id": "DRSC10115", "mean viability with MMS": 3.53e6}
{"target": "CG15375", "DRSC id": "DRSC18045", "mean viability with MMS": 3.72e6}
{"target": "GABA-B-R2", "DRSC id": "DRSC14134", "mean viability with MMS": 3.69e6}
{"target": "Tsp42En", "DRSC id": "DRSC06185", "mean viability with MMS": 3.59e6}
{"target": "Gdap1", "DRSC id": "DRSC10437", "mean viability with MMS": 3.48e6}
{"target": "lin-52", "DRSC id": "DRSC18106", "mean viability with MMS": 3.66e6}
{"target": "CG15332", "DRSC id": "DRSC18015", "mean viability with MMS": 3.69e6}
{"target": "CG30015", "DRSC id": "DRSC05241", "mean viability with MMS": 3.55e6}
{"target": "CG30015", "DRSC id": "DRSC07027", "mean viability with MMS": 3.57e6}
{"target": "CG30015", "DRSC id": "DRSC07028", "mean viability with MMS": 3.46e6}

Part of the list above, set out differently.
target | DRSC id | mean viability with MMS
CG6497 | DRSC21469 | 3.53e6
Dlic | DRSC19824 | 3.45e6

The list goes on:
{"target": "CG34159", "DRSC id": "DRSC02885", "mean viability with MMS": 2.90e6}
{"target": "CG34159", "DRSC id": "DRSC23222", "mean viability with MMS": 3.73e6}
{"target": "Snx3", "DRSC id": "DRSC16027", "mean viability with MMS": 3.53e6}
{"target": "Pcyt1", "DRSC id": "DRSC08157", "mean viability with MMS": 3.61e6}
{"target": "Ntf-2r", "DRSC id": "DRSC02019", "mean viability with MMS": 3.33e6}
{"target": "CG42366", "DRSC id": "DRSC02760", "mean viability with MMS": 3.17e6}
{"target": "CG42366", "DRSC id": "DRSC23297", "mean viability with MMS": 3.69e6}
{"target": "CG11112", "DRSC id": "DRSC06038", "mean viability with MMS": 3.50e6}
{"target": "Dys", "DRSC id": "DRSC13360", "mean viability with MMS": 3.42e6}
{"target": "Dys", "DRSC id": "DRSC13364", "mean viability with MMS": 3.56e6}
{"target": "Dys", "DRSC id": "DRSC15260", "mean viability with MMS": 3.57e6}
{"target": "Dys", "DRSC id": "DRSC16218", "mean viability with MMS": 3.47e6}
{"target": "Dys", "DRSC id": "DRSC16219", "mean viability with MMS": 3.59e6}
{"target": "Dys", "DRSC id": "DRSC16220", "mean viability with MMS": 3.48e6}
{"target": "Dys", "DRSC id": "DRSC16935", "mean viability with MMS": 3.49e6}
{"target": "CG8958", "DRSC id": "DRSC20134", "mean viability with MMS": 3.48e6}
{"target": "Vps8", "DRSC id": "DRSC09705", "mean viability with MMS": 3.45e6}
{"target": "bw", "DRSC id": "DRSC04005", "mean viability with MMS": 3.57e6}
{"target": "bw", "DRSC id": "DRSC04677", "mean viability with MMS": 3.74e6}
{"target": "Polr1F", "DRSC id": "DRSC02278", "mean viability with MMS": 3.22e6}
{"target": "Calr", "DRSC id": "DRSC16614", "mean viability with MMS": 3.41e6}
{"target": "Prp5", "DRSC id": "DRSC19975", "mean viability with MMS": 3.49e6}
{"target": "CG30056", "DRSC id": "DRSC21752", "mean viability with MMS": 3.33e6}
{"target": "CG31797", "DRSC id": "DRSC02476", "mean viability with MMS": 3.62e6}
{"target": "CG31797", "DRSC id": "DRSC02477", "mean viability with MMS": 3.65e6}
{"target": "CG34049", "DRSC id": "DRSC00104", "mean viability with MMS": 3.47e6}
{"target": "CG7884", "DRSC id": "DRSC20065", "mean viability with MMS": 3.76e6}
